In patent EP4534086A1, “TREATMENT OF LEUKODYSTROPHY” (priority 2023, dated 2025):
Like-named read-outs stand apart in the source and are kept apart here.

Legend:
[1] = system: twitcher mice
[2] = system: Vimentin and Iba1 / MBP and MOG; details: twitcher mice, donepezil vs vehicle; p<0.0001
[3] = twitcher mice when sacrificed; 10 mg/kg via drinking water; reduced water consumption at end-stage
[4] = system: MBP; details: cerebellum, donepezil 10 mg/kg/d via drinking water
[5] = system: Vimentin; details: for Vimentin normalized fluorescence, molecular layer (ML): ML of cerebellum
[6] = system: Iba1; details: for Iba1 normalized fluorescence (% baseline): cerebellum
[7] = system: twitcher mice; remark: listed apart in the source

COc1cc2c(cc1OC)C(=O)C(CC1CCN(Cc3ccccc3)CC1)C2 (racemic) [donepezil, (RS)-2-[(1-Benzyl-4-piperidyl)methyl]-5,6-dimethoxy-2,3-dihydroinden-1-one]
body weight ([1]; P27 to P32, vs vehicle, not different from P32 onwards): increased trend
loss of climbing behavior (climbing score) ([1]; donepezil vs vehicle): delayed
severity of immobility (immobility score) ([1]; donepezil vs vehicle): decreased severity
twitching score ([1]; donepezil vs vehicle): did not reveal any significant difference
delay of appearance of immobility (immobility score) ([1]; donepezil vs vehicle, effect from P28 onwards): approximately 8 days
protein-expression-signature (Vimentin and Iba1 divided by MBP and MOG) [2]: significantly attenuated
concentration of donepezil in the brains [3]: not detectable
MBP normalized fluorescence (% baseline) ([4]; twitcher mice, vehicle twitcher 33 ± 1.7, p = 0.036): 75 ± 13.1%
MBP normalized fluorescence (% baseline) ([4]; wild type mice, vehicle wild type 100 ± 28.7, p = 0.841): 98 ± 13.4%
Vimentin normalized fluorescence, molecular layer (ML) ([5]; twitcher mice, vehicle 48 ± 10.1, p=1.000): 50 ± 4.3 % baseline
Vimentin normalized fluorescence, translocation from ML to GL (Figure 2D: white matter, WM) ([5]; twitcher mice, vehicle twitcher 228 ± 18.1, wild type 100 ± 7.0, p=0.0357): 169 ± 4.4 % baseline
Vimentin normalized fluorescence, molecular layer (ML) ([5]; wild type mice, vehicle 100 ± 14.6, p=0.7533): 89 ± 10.1 % baseline
Iba1 normalized fluorescence (% baseline) ([6]; twitcher mice, vehicle 437 ± 44.8, p = 0.036): 82 ± 15.2%
mean surface area of Iba1 immunofluorescence ([6]; twitcher mice, vehicle 1061 ± 117, p=0.0714): 846 ± 31.2 square micrometers
Iba1 normalized fluorescence (% baseline) ([6]; wild type mice, vehicle 100 ± 14.4, p = 0.0079): 223 ± 30.0%
mean surface area of Iba1 immunofluorescence ([6]; wild type mice, vehicle 682 ± 39.6, p=0.0952): 786 ± 18.1 square micrometers
lifespan ([7]; donepezil 10 mg/kg, vehicle-treated 36 days, log-rank p<0.05): ~45 days
life extension ([7]; donepezil oral administration): 5 days
